# Counter-ions that a name gives are not always drawn. ± gives the standard deviation of the averaged measurements. The list shows a part of the results.
# Tested on: APPdp1-6 iPSC-derived neurons
# Assay: pThr231Tau/total Tau ratio Z-score vs DMSO vehicle wells; higher = more pThr231Tau relative to total Tau
# Details: 5 µM; treatment time 5 days
row,Compound,pThr231Tau/total Tau ratio Z-score
1,"CC(C)CCCC(C)N (stereo unspecified) [OCTODRINE, vasoconstrictor, anesthetic (local)]",0.564 ± 0.066
2,COc1cc(C2Oc3cc([C@H]4Oc5cc(O)cc(O)c5C(=O)[C@@H]4O)ccc3OC2CO)ccc1O (stereo partly specified),0.93 ± 0.56
3,CC(=O)N[C@@H](CS)C(=O)O [Prestw-1206],0.509 ± 0.94
4,CC(=O)O[C@H]1C[C@@]2(C)[C@@H](C[C@@H](O)[C@H]3[C@@]4(C)CC[C@@H](O)[C@@H](C)[C@@H]4CC[C@@]32C)/C1=C(\CCC=C(C)C)C(=O)O [Prestw-390],0.358 ± 1.3
5,CCN(CC)CCOC(=O)c1ccc(N)cc1 [Prestw-41],-0.282 ± 0.19
6,Cc1c(C)c2c(c(C)c1O)CCC(C)(C(=O)O)O2 (stereo unspecified) [Prestw-530],1.71 ± 0.29
7,CC[C@H](C)C(=O)O[C@H]1C[C@@H](C)C=C2C=C[C@H](C)[C@H](CC[C@@H]3C[C@@H](O)CC(=O)O3)[C@H]21 [Prestw-516],-2.96 ± 1.3
8,CCCCNc1cc(C(=O)O)cc(S(N)(=O)=O)c1Oc1ccccc1 [Prestw-276],-0.359 ± 0.84
9,CNC(=O)c1c(I)c(C(=O)NCC(=O)Nc2c(I)c(C(=O)O)c(I)c(C(=O)NCCO)c2I)c(I)c(N(C)C(C)=O)c1I [Prestw-1062],-1.14 ± 2
10,CC(=O)Oc1ccccc1C(=O)Oc1ccccc1C(=O)O [Prestw-98],-0.683 ± 1.6
11,CC(C)n1c(/C=C/C(O)CC(O)CC(=O)O)c(-c2ccc(F)cc2)c2ccccc21 (stereo unspecified) [Prestw-859],-2.74 ± 1
12,NC(=O)OCC(COC(N)=O)c1ccccc1 [Anticonvulsant; glutamate receptor antagonist],0.0574 ± 1.5
13,C[C@H]1NC(=O)NC1=O [Prestw-864],0.0882 ± 0.12
14,Cc1ccnc(NS(=O)(=O)c2ccc(N)cc2)n1 [Prestw-694],-1.23 ± 0.31
15,Nc1ccc(S(=O)(=O)Nc2cnc3ccccc3n2)cc1 [Prestw-731],-0.508 ± 0.19
16,CNC[C@H](O)[C@@H](O)[C@H](O)[C@H](O)CO [Prestw-884],-0.165 ± 1.5
17,NCCCC(O)(P(=O)(O)O)P(=O)(O)O [Prestw-1210],0.563 ± 0.9
18,NS(=O)(=O)c1cc(Cl)c(Cl)c(S(N)(=O)=O)c1 [Prestw-809],0.904 ± 0.14

# 2 compounds drawn at random from the list so far, as already listed:
row,Compound,pThr231Tau/total Tau ratio Z-score
14,Cc1ccnc(NS(=O)(=O)c2ccc(N)cc2)n1 [Prestw-694],-1.23 ± 0.31
13,C[C@H]1NC(=O)NC1=O [Prestw-864],0.0882 ± 0.12

# (list continues)

row,Compound,pThr231Tau/total Tau ratio Z-score
1,O=C(O)c1ccc(S(=O)(=O)N(Cl)Cl)cc1 [HALAZONE    Therap cat: disinfectant],0.353 ± 0.25
2,"O=C(Oc1ccccc1C(=O)O)c1ccccc1O [SALSALATE, analgesic]",0.779 ± 0.31
3,COc1c(C)c2c(c(O)c1C/C=C(\C)CCC(=O)O)C(=O)OC2,-0.0747 ± 1
4,Nc1ccc(C(=O)O)cc1 [p-Aminobenzoic acid],0.876 ± 0.18
5,CCN1CCCC(OC(=O)C(c2ccccc2)c2ccccc2)C1 (stereo unspecified) [Prestw-1055],0.24 ± 0.98
6,Cc1onc(-c2c(F)cccc2Cl)c1C(=O)N[C@@H]1C(=O)N2[C@@H]1SC(C)(C)[C@@H]2C(=O)O [Prestw-1011],1.29 ± 0.12
7,"NCCNCCNCCN [TRIENTINE HYDROCHLORIDE, chelating agent]",0.47 ± 1.6
8,CN(C)CCCSC(=N)N [Prestw-983],-0.414 ± 0.22
9,O=C(NCCN1CCOCC1)c1ccc(Cl)cc1 [Prestw-353],1.2 ± 0.91
10,CN(C/C=C/c1ccccc1)Cc1cccc2ccccc12 [Prestw-1063],-0.575 ± 0.018
11,CN1C(=O)OC(C)(C)C1=O [Prestw-515],0.21 ± 0.75
12,OCCN1CCN(CCCN2c3ccccc3C=Cc3ccccc32)CC1 [Prestw-1456],-0.257 ± 0.43
13,C[C@H]1O[C@@H](n2cc(F)c(=O)[nH]c2=O)[C@H](O)[C@@H]1O,1.53 ± 1.4
14,C[C@@H](O)[C@H]1C(=O)N2C(C(=O)O)=C(S[C@@H]3CN[C@H](C(=O)N(C)C)C3)[C@H](C)[C@H]12 [Prestw-1106],0.0304 ± 1.6
15,CC(=O)O[C@H]1C[C@@H]2CC[C@@H]3[C@H](CC[C@@]4(C)[C@H]3C[C@H]([N+]3(C)CCCCC3)[C@@H]4OC(C)=O)[C@@]2(C)C[C@@H]1N1CCCCC1 [Prestw-1359],0.692 ± 0.41
16,Cc1cc(C)cc(OCC2CNC(=O)O2)c1 (stereo unspecified) [METAXALONE    Therap cat: skeletal muscle relaxant],0.198 ± 0.54
17,CC1(C)O[C@@H]2C[C@H]3[C@@H]4CCC5=CC(=O)CC[C@]5(C)[C@@]4(F)[C@@H](O)C[C@]3(C)[C@]2(C(=O)CCl)O1 [Prestw-655],1.25 ± 0.18
18,C[C@]12C=CC(=O)C=C1CC[C@H]1[C@@H]3C[C@@H](O)[C@](O)(C(=O)CO)[C@@]3(C)C[C@H](O)[C@@]12F [Prestw-120],1.77 ± 1.8
